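Genome-wide siRNA knockdown in TC32 Ewing sarcoma cells, comparing luciferase light from an NR0B1-promoter reporter with a CMV-promoter reporter 48 hours after transfection.
Each siRNA was applied at 20 nM.
A z-score of the log NR0B1-over-CMV signal, less the median of siRNAs with the same seed; more negative means a stronger specific loss of the NR0B1 reporter.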

The strongest results of the screen are mostly left out here.
Sequences are the guide (antisense) strand, without overhang.

Sequence	gene	seed-corrected z-score
UAACUGGUAAAGCAUACGG	C2orf44	-0.731
UAGAAAACUCUCCACAUUC	LRCH4	0.3736
UCAUUGUCAGGGUUCAGUG	ARSH	-0.00723
UACACUUACAGGUUCCAUU	KAT2A	-1.705
UUAGAAGCACAGGAGAUGC	FMN1	0.423
UUUUCGUCUUCCUUGUUGG	CASP8AP2	-1.656
AGUCCAGCAAGUACCAUAG	PAEP	-0.1355
UCGGUGAUCAGAAUGACCC	KLK3	1.186
UAACGAAAACGUGUAAGGC	TMEM175	0.556
UUCAUGUCUUCUGUCAUCU	APOBR	-0.5592
AUAGGAGUCACAAAUCACA	PHF5A	-1.095
UGCUUUAGAAUCCAAUUUC	SYCP1	-0.9032
UGUCGUACCAGACCUUCUU	ZMAT5	-0.3608
UCCCUUGCGACAGUCUCUC	RCCD1	-0.2963
AUAAGGAUCACGGUGUAUG	SBDS	0.7433
UUCAUGUCUACCACAAUAC	GNL3	-1.028
UCCCGCACAACUCCUUGUG	CCER2	-0.432
AAGAUUUUGACGGACCUGU	SEC13	0.7159
UCCCUCGUUUGUUUCAUGG	FAM20C	0.1043
UGAAGUUCAUGGUCCGUGC	GRIN1	-0.5888
UAUGCUCCUUGGUCAUUGG	RANBP6	-0.8436
UUCUAUAAUUCAGAUAUCU	KRTAP13-3	0.2615
UUUCGAUAUAGAUAUAGUG	PLD1	-0.4463
UCAUUCGAUAUGUAUUUCC	GNE	0.1144
AUAGGAAGAAGAGCGUGCG	TMEM179	-0.9441
UGAGCAUGGAGUUCACUUC	INPP5J	-0.3699
UAAAUGACCACGCUUCCUU	GDF2	1.589
UCACUCCCAACUCCCAUUG	BASP1	0.06089
UCAGUAUCCUUCGUGCUGC	ABCA4	1.208
AAAACACCAACUACUUUUG	NIPSNAP3B	1.814
UGGGUGUAGACAGAUGAGA	MT1XP1	-1.359
UGAGAUAUGAAGACACAGA	LCA10	-0.4505
AACUGAAUGAUUCAGAACC	ASB16-AS1	-0.645
AACUCUUUCAGUAUGCCCG	POU5F2	-0.2942
UUCUCGUAAAAAUACUAAC	ZNF645	0.01268
UCUCCGACCAUCAAUCACC	DAAM1	0.2339
AAACGACCAAAACACGAUG	ZSWIM4	-0.03177
UGAAGUCCCAAACUCAUCG	ZFP36L2	-1.426

Some entries from above, unchanged:

{"sequence": "UCCCGCACAACUCCUUGUG", "gene": "CCER2", "seed-corrected z-score": "-0.432"}
{"sequence": "UCGGUGAUCAGAAUGACCC", "gene": "KLK3", "seed-corrected z-score": "1.186"}
{"sequence": "UCAGUAUCCUUCGUGCUGC", "gene": "ABCA4", "seed-corrected z-score": "1.208"}
{"sequence": "UUCUAUAAUUCAGAUAUCU", "gene": "KRTAP13-3", "seed-corrected z-score": "0.2615"}

The results are deposited in PubChem (AID1159506; NCATS, 2015).